The list shows a part of the results.

The assay deals with T1, OsSMF1 (Oryza sativa, UniProt Q6ZLB0 1-436).
T1 sequence: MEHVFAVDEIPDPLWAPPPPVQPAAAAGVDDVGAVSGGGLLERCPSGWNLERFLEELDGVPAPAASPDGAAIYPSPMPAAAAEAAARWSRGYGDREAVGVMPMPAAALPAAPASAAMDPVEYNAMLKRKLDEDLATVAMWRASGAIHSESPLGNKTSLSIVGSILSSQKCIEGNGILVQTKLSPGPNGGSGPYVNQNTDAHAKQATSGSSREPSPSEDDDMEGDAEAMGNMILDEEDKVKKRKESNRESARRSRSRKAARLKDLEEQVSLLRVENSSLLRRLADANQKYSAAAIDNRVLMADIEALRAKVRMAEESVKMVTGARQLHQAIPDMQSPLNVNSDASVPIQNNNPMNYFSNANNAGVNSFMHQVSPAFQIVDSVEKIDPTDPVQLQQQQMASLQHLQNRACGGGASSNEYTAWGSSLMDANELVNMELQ
Kind of assay: protein-binding microarray (RPBM); PBS, 2% BSA, 51.3 ng/ul salmon testes DNA, 50 uM zinc acetate, 200 nM TF, 25 C, 1 h; high values mean tight binding. Particulars: protein: recombinant; tags: N-terminal polyhistidine and DsRed monomer fusion (pET32a); chain copies: 2; label: CyDye5-dUTP incorporated in the synthesized complementary strand; 3' TTTTT single-stranded linker to array surface; dsDNA, one strand shown. A digest of the protocol: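 Binding signal is reported as fluorescence intensity per feature (arbitrary units) from an Axon 4000B scanner. Incubation used 200 nM of each Ni–NTA-purified, N-terminally polyhistidine- and DsRed-fused transcription factor from E. coli BL21-CodonPlus on a double-stranded custom Agilent array for 1 h at 25 °C, with 50 µM zinc acetate in the buffer, followed by washing.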
As for “GAAATATACACAGCAGTCACACGATCTGACTCAGATAACTCGGAGTCACCTAGTGCAG”, the binding signal was 7240 fluorescence intensity (a.u.). To “AATCAACTATAATTAGTTGGCTATATTATTAAACTTGATCCGGAGTCACCTAGTGCAG” belongs 13800 fluorescence intensity (a.u.); to “CTAAACTTAGACACCTCAGCGCTAAATAGCACGACGCTGACGGAGTCACCTAGTGCAG”, 4740 fluorescence intensity (a.u.). As for “CTGCATGCATGTGGGGCCCACTTTCAGTGTCAGCCATAGGCGGAGTCACCTAGTGCAG”, the binding signal is 4050 fluorescence intensity (a.u.). With “GATGAGGCTGCTGACTTGTTCTATGAGATGAGGGTCGAGGCGGAGTCACCTAGTGCAG”, the binding signal is 3280 fluorescence intensity (a.u.). For the sequence “AGCCACGTGCGAAAGGCGTAACCTAATATTTCCCGTGTTCCGGAGTCACCTAGTGCAG”, the binding signal is 4370 fluorescence intensity (a.u.).

As for “CCCCTATGAACGCACACACGCACACCCTATCACTATGAGCCGGAGTCACCTAGTGCAG”, the binding signal is 3490 fluorescence intensity (a.u.). To “GCAGGATGAAAGCAGGGCAGGATGGCACCCACGCGGCGCCCGGAGTCACCTAGTGCAG” belongs 3440 fluorescence intensity (a.u.); to “CAGGCCGACATGTGGGCTCCACGTCACGGGCGTCCGGGCCCGGAGTCACCTAGTGCAG”, 13100 fluorescence intensity (a.u.). The same measure for “TACCATATACAAGTGCATAGTCTGATCCATATATTTATGACGGAGTCACCTAGTGCAG”: 3290 fluorescence intensity (a.u.); for “CTAGCTAGTGTGTGGTTCGGTATCTAAACAATAATTCTCCCGGAGTCACCTAGTGCAG”: 37400 fluorescence intensity (a.u.). The same measure for “CCCCGAGCCGTTAACGTCACCGACACGCGGGCCCCGCGAACGGAGTCACCTAGTGCAG”: 4580 fluorescence intensity (a.u.); for “TCCTTGCTGCAATATTAAAGGAGGACGCTTCGATCGACTCCGGAGTCACCTAGTGCAG”: 10800 fluorescence intensity (a.u.). For “CTTTTAAAACCAATCTATACATATAGTAACCATATTTGAACGGAGTCACCTAGTGCAG”, the binding signal is 3360 fluorescence intensity (a.u.). To “ACCCACCGTCTGCCACGTCAGCTTGCCGCCCACCATTTGGCGGAGTCACCTAGTGCAG” belongs 25900 fluorescence intensity (a.u.); to “TCAGAGAGCTGACAGCGTGTTCAGGCCGTTCGATTTTGGTCGGAGTCACCTAGTGCAG”, 5030 fluorescence intensity (a.u.). Turning to “TCACTAGCAACGATTGACGCAATCCGAAATCTGGGTCAGCCGGAGTCACCTAGTGCAG”, the binding signal is 3890 fluorescence intensity (a.u.). As for “CGCCTCCGTAGTCGGATAGACCCACGATTTCCTAGTCATCCGGAGTCACCTAGTGCAG”, the binding signal is 5210 fluorescence intensity (a.u.). To “GACCCACATGGATCCCACATGTCAGGTATCCACGTCACCCCGGAGTCACCTAGTGCAG” belongs 30800 fluorescence intensity (a.u.).

With “ACAGGAGCACCATCAACAGCTGACAACTTGGCATTGGTATCGGAGTCACCTAGTGCAG”, the binding signal is 3680 fluorescence intensity (a.u.). The same measure for “TTCTTTGTCCCGATACGAAATATTATGAAGTGTCTCGTTTCGGAGTCACCTAGTGCAG”: 3200 fluorescence intensity (a.u.). The same measure for “TCCTGCAGCCAAGAAACACTCACACGCACGCACAAAGCGACGGAGTCACCTAGTGCAG”: 4170 fluorescence intensity (a.u.); for “ATGTATTGTGTGCACGTGTGTGTCTGTGGAGCACGCATCTCGGAGTCACCTAGTGCAG”: 3240 fluorescence intensity (a.u.); for “TAAAATTACCGGCCCGGATGAAACAGTCACGCCTAACTACCGGAGTCACCTAGTGCAG”: 3540 fluorescence intensity (a.u.). Regarding “CATCATTTATTGGCAGGTTGTTTGTGCAGTTGCTTGTTTTCGGAGTCACCTAGTGCAG”, the binding signal was 13800 fluorescence intensity (a.u.). The same measure for “AGCACAGAGCAGGAATGAAGTTTGGAGTCATGCCTACCAGCGGAGTCACCTAGTGCAG”: 3180 fluorescence intensity (a.u.); for “AAGGAAGTATACAATTCGGTCATTTTCAAATGGATTTCCTCGGAGTCACCTAGTGCAG”: 34100 fluorescence intensity (a.u.). As to “ACGGCGGTGACGAGGGAAGGGGAGGCCGGCGTGGCGGCGCCGGAGTCACCTAGTGCAG”, the binding signal is 3810 fluorescence intensity (a.u.). The same measure for “ACAAGTCCATCATCACCGACATTTAGTCTTGTGTCATCAACGGAGTCACCTAGTGCAG”: 4360 fluorescence intensity (a.u.); for “AACAGTAGCCATTCCACACAAATAGTACGCCCTGTGCATGCGGAGTCACCTAGTGCAG”: 3870 fluorescence intensity (a.u.). The same measure for “CGTCCTCTGCCACGTCTTGTCGATTTGTCTTCCGTCAGCACGGAGTCACCTAGTGCAG”: 11500 fluorescence intensity (a.u.). To “CCAATCCTCGTATCTTGGGTAAGGTACCGAGGTGGTACCTCGGAGTCACCTAGTGCAG” belongs 3360 fluorescence intensity (a.u.). For the sequence “AGCAAATATTTACTGTAGTACTACACTGTCAAATCATGTACGGAGTCACCTAGTGCAG”, the binding signal was 3610 fluorescence intensity (a.u.). On to “GAAGTCCAAGGCTGCGCCTACGTCACGCATGCGCGCATCGCGGAGTCACCTAGTGCAG”, for which the binding signal is 10400 fluorescence intensity (a.u.). The same measure for “TCCACTCCCTGTCGCGCGCCACGTCGCCTGCTGCCGCCCGCGGAGTCACCTAGTGCAG”: 14300 fluorescence intensity (a.u.); for “ACTTGGTAGTGCTAACTCTTAAATTTAACTTTAGAAATTGCGGAGTCACCTAGTGCAG”: 12100 fluorescence intensity (a.u.); for “TCGCGCGCGAGCGAAGCCGAGCATCAGCATCTCTCTCCCCCGGAGTCACCTAGTGCAG”: 3290 fluorescence intensity (a.u.). The same measure for “AAATCCTTGTCTTCCCACGCTGACGCTGCTGTGTCCAGGTCGGAGTCACCTAGTGCAG”: 4530 fluorescence intensity (a.u.). For “AACATGCTTGGAATTGGTCGCTCCGTCATCTACATTGTCACGGAGTCACCTAGTGCAG”, the binding signal was 3630 fluorescence intensity (a.u.). The same measure for “TAGTGTGCTGCGAACGTTCACTCTCACAACCAGTCAACCACGGAGTCACCTAGTGCAG”: 3430 fluorescence intensity (a.u.); for “CATTCACGTGCCACATCAACTTGATCACGAACTTTGAATACGGAGTCACCTAGTGCAG”: 3210 fluorescence intensity (a.u.); for “CGCATGGCGCGTGGCAAGCGGCGTCGCGACGTGTCGCTGGCGGAGTCACCTAGTGCAG”: 3650 fluorescence intensity (a.u.).

For the origin of these results see publication PMC7819943, “Rice protein-binding microarrays: a tool to detect cis-acting elements near promoter regions in rice”.
